The values that follow come from article PMC10030467 (Nature Communications, 2023).

The target in one experiment is TRIM72 I95A (human) (UniProt Q6ZMU5). Nature of the experiment: SEC-MALS; series of protein concentrations; Superdex 200 increase, 20 mM Tris-HCl pH 8.0, 200 mM NaCl, 0.3 mM TCEP; dimers to tetramer; both purified.
Experiment [1] deals with full-length human TRIM72 protein (2-477) (human) (UniProt Q6ZMU5). The experiment is described as above.
In experiment [2] the target is TRIM72 SPRY (278-477) (human) (UniProt Q6ZMU5). The experiment is described as follows: AUC + SEC-MALS; deletion constructs of TRIM72 in solution; 20 mM Tris-HCl pH 8.0, 200 mM NaCl, 0.3 mM TCEP; both purified. A general note: In gel filtration, larger molecules generally elute earlier.
The target of experiment [3] is TRIM72^ΔRING (84-477) (human) (UniProt Q6ZMU5). The experiment is described as follows: AUC; sedimentation velocity of the RING deletion, tetramer fraction (Supplementary Fig. 5h, i); dimers to tetramer; both purified.

Where a chain is given by its changes, count along the chain named. Numbers in names are those of the source. No constants are given. Whether binding was seen depends on the method and setting. Some entries that bind do so weakly or less than the wild type.

B1: TRIM72 I95A (natural protein, human, UniProt Q6ZMU5-1 2-477, looked up)
chain: SAAPGLLHQELSCPLCLQLFDAPVTAECGHSFCRACLGRVAGEPAADGTVLCPCCQAPTRPQALSTNLQLARLVEGLAQVPQGHCEEHLDPLSAYCEQDRALVCGVCASLGSHRGHRLLPAAEAHARLKTQLPQQKLQLQEACMRKEKSVAVLEHQLVEVEETVRQFRGAVGEQLGKMRVFLAALEGSLDREAERVRGEAGVALRRELGSLNSYLEQLRQMEKVLEEVADKPQTEFLMKYCLVTSRLQKILAESPPPARLDIQLPIISDDFKFQVWRKMFRALMPALEELTFDPSSAHPSLVVSSSGRRVECSEQKAPPAGEDPRQFDKAVAVVAHQQLSEGEHYWEVDVGDKPRWALGVIAAEAPRRGRLHAVPSQGLWLLGLREGKILEAHVEAKEPRALRSPERRPTRIGLYLSFGDGVLSFYDASDADALVPLFAFHERLPRPVYPFFDVCWHDKGKNAQPLLLVGPEGAEA
notes: TRIM72, human, residues 2-477, point mutant in the B-box; also called I95A mutant; source: E. coli Rosetta (DE3), purified; not shown: His-Sumo, N-terminal, cleaved
Regarding B1, in the experiment with TRIM72 I95A (human), the binding entry is “binds weakly”.

B2: full-length human TRIM72 protein (2-477) (natural protein, UniProt Q6ZMU5-1 2-477, looked up)
chain: B1 chain with A94I
notes: TRIM72 (MG53), human, residues 2-477; open reading frame of GenBank NM_001008274.4; A dimer in solution at low concentration; the RING domain is not seen in the crystal structure although the full-length protein was crystallised; also called MG53; Tripartite Motif Protein 72; source: E. coli Rosetta (DE3), purified (nickel column, Source Q, Superdex 200 increase); not shown: His-Sumo, N-terminal, …
With B2, the binding entry in experiment [1] is given as “binds weakly”.

B3: TRIM72 SPRY (278-477) (domain or fragment, UniProt Q6ZMU5-1 278-477)
chain: RKMFRALMPALEELTFDPSSAHPSLVVSSSGRRVECSEQKAPPAGEDPRQFDKAVAVVAHQQLSEGEHYWEVDVGDKPRWALGVIAAEAPRRGRLHAVPSQGLWLLGLREGKILEAHVEAKEPRALRSPERRPTRIGLYLSFGDGVLSFYDASDADALVPLFAFHERLPRPVYPFFDVCWHDKGKNAQPLLLVGPEGAEA
Turning to B3, the binding result in experiment [2] was “no binding”.

B4: TRIM72^ΔRING (84-477) (domain or fragment, human, UniProt Q6ZMU5-1 84-477, looked up)
chain: GHCEEHLDPLSIYCEQDRALVCGVCASLGSHRGHRLLPAAEAHARLKTQLPQQKLQLQEACMRKEKSVAVLEHQLVEVEETVRQFRGAVGEQLGKMRVFLAALEGSLDREAERVRGEAGVALRRELGSLNSYLEQLRQMEKVLEEVADKPQTEFLMKYCLVTSRLQKILAESPPPARLDIQLPIISDDFKFQVWRKMFRALMPALEELTFDPSSAHPSLVVSSSGRRVECSEQKAPPAGEDPRQFDKAVAVVAHQQLSEGEHYWEVDVGDKPRWALGVIAAEAPRRGRLHAVPSQGLWLLGLREGKILEAHVEAKEPRALRSPERRPTRIGLYLSFGDGVLSFYDASDADALVPLFAFHERLPRPVYPFFDVCWHDKGKNAQPLLLVGPEGAEA
notes: TRIM72, human, residues 84-477 (B-box, coiled-coil, SPRY); also called RING deletion; source: E. coli Rosetta (DE3), purified; not shown: His-Sumo, N-terminal, cleaved
Turning to B4, the binding result in experiment [3] is reported as “binds weakly”.
